Test results from PubChem BioAssay AID493014 (National Center for Advancing Translational Sciences (NCATS), 2011).
Some of the results follow. Shown are side measurements of this screen, not its main read-out; they come without a call. The list favours compounds with an active or inconclusive main result. Words in brackets tell the shape of the fitted curve; partial curves, single points and poor fits give uncertain potencies.

Assay: qHTS Assay to Find Inhibitors of Chronic Active B-Cell Receptor Signaling
Conditions: ABC-DLBCL IkBa-CBG/CBR reporter, luminescence ratio (green luciferase fused to IkBa over red control in TMD8 lymphoma cells), 4 h
Procedure, shortened: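 Concentration-response series (up to 46 uM) were applied to TMD8 dual-reporter cells for 4 h at 37C with doxycycline. Green/red ratio, after filter-overlap correction, defined %Activity; red signal alone was normalised to basal cells and zero luminescence.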

[1] = measured here: CBR red luminescence, cell number
[2] = measured here: IkBa-CBG green luminescence

Compound	AC50 [1]	AC50 [2]
Cc1ccc(NCCC(=O)c2ccc(Cl)c(Cl)c2)cc1	1.41 µM [falling, full curve, poor fit]	–
CSc1nnc(-c2ccccc2)o1	14.1 µM [rising, single point]	–
CC(=O)N(CCC1(c2ccc(C)cc2)CCOC(C(C)C)C1)Cc1ccco1 (configuration not stated)	11.2 µM [falling, single point]	14.1 µM [rising, partial curve, poor fit]
O=C(Nc1nc(-c2ccc(-c3ccccc3)cc2)cs1)c1cnccn1	0.517 µM [falling, partial curve, poor fit]	–
O=C(Nc1ccc(OC(F)(F)F)cc1)Oc1ccccc1N1CCCCC1	3.55 µM [falling, full curve]	–
Clc1ccccc1CN1CCN(CCCc2ccccc2)CC1	35.5 µM [rising, single point]	–
Cc1ccc(C(=O)NNC2=NC(C)(C)Cc3ccccc32)cc1	11.2 µM [rising, single point]	–
CC(C)(C)c1ccc(NC(=O)CSc2nnc(-c3n[nH]c4ccccc34)o2)cc1	11.6 µM [falling, partial curve]	–
O=C(O)Cc1ccc(S(=O)(=O)Nc2ccccc2C(=O)O)cc1	6.31 µM [falling, single point]	–
CN(Cc1nc(-c2cccs2)no1)CC1(N2CCOCC2)CCCCC1	0.562 µM [rising, full curve]	–
Cc1ccccc1-c1nnc(-c2ccc(Br)cc2)o1	3.55 µM [rising, full curve]	–
CCCn1c(N)c(C(=O)CSc2n[nH]c(-c3ccc(C)cc3)n2)c(=O)[nH]c1=O	8.2 µM [rising, partial curve]	–
CCOC(=O)C1=c2s/c(=C\c3cccnc3)c(=O)n2C(N)=C(C(=O)OC)C1c1cccnc1 (configuration not stated)	0.13 µM [rising, full curve, poor fit]	–
CCNC(=O)NC(=O)COC(=O)CCCc1nc2ccccc2s1	15.8 µM [rising, partial curve, poor fit]	–
OC(CN1CCN(c2ccccc2F)CC1)c1ccc(F)cc1 (configuration not stated)	10 µM [rising, partial curve]	–
Cc1nc2c(ccc3nc(NC(=O)c4ccc(S(=O)(=O)N(C)C)cc4)sc32)s1	20 µM [falling, single point]	–
COc1cc(OC)c(OC)cc1/C=N/NC(=S)NCC1CCCO1 (configuration not stated)	2.59 µM [falling, full curve]	–
C=CCn1cnc2c(nnn2-c2ccc(Cl)cc2)c1=O	2.82 µM [rising, partial curve]	–
CCCC[n+]1c2ccccc2cc2ccccc21	35.5 µM [falling, single point]	–
COc1cccc(/C=N/NC(=S)Nc2cccc(C(=O)O)c2)c1	10 µM [falling, partial curve]	–
COC(=O)c1cc(NC(=O)Nc2ccccc2OC)cc(C(=O)OC)c1	18.4 µM [falling, single point]	–
COc1cccc(OCCOc2ccc(/C=C3\C(=N)N4N=C(S(C)(=O)=O)SC4=NC3=O)cc2OC)c1	0.1 µM [rising, full curve, poor fit]	–

Compound	AC50 [1]	AC50 [2]
Nc1nc(N)c2ncc(C(=O)CCc3ccccc3)nc2n1	35.5 µM [falling, single point]	–
Nc1nc(-c2ccccc2)cn1/N=C/c1ccccc1	12.6 µM [falling, partial curve, poor fit]	–
CC(=O)c1cc(C#N)c(SCc2ccccc2)nc1C	18.4 µM [rising, partial curve]	16.4 µM [falling, partial curve, poor fit]
O=C(N/N=C/c1ccc2c(c1)OCO2)c1ccc(NS(=O)(=O)c2cccs2)cc1	8.91 µM [falling, partial curve, poor fit]	–
COc1ccccc1OC(=O)CCc1nc2ccccc2s1	17.8 µM [falling, single point]	–
CCN(CC)CCNC(=O)C1(O)c2cc(Br)ccc2NC(=O)N1c1ccc(Cl)cc1 (configuration not stated)	6.31 µM [rising, single point]	–
CCOc1cc(NS(=O)(=O)c2ccccc2)c(OCC)cc1NC(=O)c1ccco1	0.146 µM [falling, full curve, poor fit]	–
Cc1cccc(CCNC(=O)CCc2nc(-c3ccccc3F)no2)c1	4.11 µM [falling, partial curve, poor fit]	–
Cc1ccccc1C(=O)Nc1ccc(N2CCCC2)cc1	10 µM [falling, partial curve]	–
COc1cc(/C=C/C(=O)NC(=O)c2ccccc2O)ccc1OC(C)=O	1.41 µM [falling, full curve, poor fit]	–
Cc1ccc(/C=C2/NC(=O)N(c3ccccc3)C2=O)o1	7.94 µM [falling, partial curve]	–
COc1ccc(-c2nc(C=O)cs2)cc1	25.1 µM [falling, single point]	–
Cc1nc(-c2cccc(S(=O)(=O)N3CCCCCC3)c2)cs1	18.4 µM [falling, partial curve, poor fit]	–
Cc1ccc(-n2cnn(-c3ccc([N+](=O)[O-])cc3[N+](=O)[O-])c2=O)cc1	10 µM [rising, partial curve, poor fit]	–
COC(=O)N1c2ccccc2C=Cc2ccccc21	17.8 µM [falling, single point]	–
CCOc1ccc(-c2nnn(CCC(=O)O)n2)cc1OC	13 µM [falling, partial curve, poor fit]	–
COc1ccc(/C(C)=N/NC(=S)NCCc2ccccc2)cc1	17.8 µM [falling, partial curve]	3.55 µM [falling, single point]
O=C(NC1CCCCC1)N(Cc1cc2cc3c(cc2[nH]c1=O)OCCO3)C1CCCCC1	6.51 µM [falling, single point]	–
Cc1ccc(OCCNC(=O)CNC(=O)c2ccc3c(c2)OCO3)cc1	32.6 µM [rising, partial curve, poor fit]	–
COc1cccc(C(=O)Nc2cc(NC(=O)c3ccco3)ccc2OC)c1	4.61 µM [rising, single point]	–
Cc1nn(CCCC(=O)Nc2cnn(Cc3ccc(F)cc3)c2)c(C)c1[N+](=O)[O-]	0.1 µM [rising, full curve, poor fit]	–
c1ccc(-c2nnc3ccc(N4CCC5(CC4)OCCO5)nn23)cc1	15.8 µM [falling, single point]	–

Retrieved by structure from above:
Compound	AC50 [1]	AC50 [2]
Cc1ccc(/C=C2/NC(=O)N(c3ccccc3)C2=O)o1	7.94 µM [falling, partial curve]	–
Cc1nn(CCCC(=O)Nc2cnn(Cc3ccc(F)cc3)c2)c(C)c1[N+](=O)[O-]	0.1 µM [rising, full curve, poor fit]	–
CCN(CC)CCNC(=O)C1(O)c2cc(Br)ccc2NC(=O)N1c1ccc(Cl)cc1 (configuration not stated)	6.31 µM [rising, single point]	–
Nc1nc(N)c2ncc(C(=O)CCc3ccccc3)nc2n1	35.5 µM [falling, single point]	–

(further entries)

Compound	AC50 [1]	AC50 [2]
CC(C)(C)C(=O)NCCCc1nc2ccccc2n1CCCOc1ccc(Cl)cc1	35.5 µM [falling, single point]	–
Cc1ccc2nc(Nc3ccc4[nH]c(=O)[nH]c4c3)c(-n3nc(C)cc3C)nc2c1	–	0.731 µM [rising, full curve, poor fit]
O=C(CN1C(=O)NC2(CCCCCC2)C1=O)c1ccc2c(c1)OCCO2	0.082 µM [rising, full curve, poor fit]	–
CCOc1ccc(S(=O)(=O)Nc2ccc(F)cc2)c(C)c1C	29.1 µM [falling, single point]	–
COc1ccc(NS(=O)(=O)c2cc(NC(=O)c3cncc(Br)c3)ccc2OC)cc1	29.1 µM [falling, single point]	–
O=C(Nc1nc(-c2ccc(F)cc2)cs1)C1CCN(C(=O)c2ccc(F)cc2)CC1	23.1 µM [falling, partial curve]	–
CCN(CC)S(=O)(=O)c1ccc(/C=C/C(=O)NC2CCCCC2)cc1	5.01 µM [rising, partial curve, poor fit]	–
O=c1c2c3c(sc2nc2n1CCCCC2)CCC3	0.517 µM [falling, partial curve, poor fit]	–
O=C(O)CNC(=O)c1ccc(S(=O)(=O)N2CCOCC2)cc1	0.461 µM [rising, full curve, poor fit]	–
CC(C)n1c(O)c(N=Nc2ccc(Cl)c(C(=O)O)c2)c2ccccc21	35.5 µM [falling, single point]	–
Cc1cc(/C=N/NC(=O)c2cccs2)c(C)n1-c1cnccn1	35.5 µM [falling, single point]	–
CSCCC(NC(=O)COc1ccccc1)C(=O)N(C)Cc1cccc(F)c1 (configuration not stated)	0.517 µM [rising, full curve, poor fit]	–
CC(C)CNc1cc(N2CCCC2)ccc1[N+](=O)[O-]	3.16 µM [falling, single point]	–
Cc1cccc(C(=O)NCC(=O)OCC(=O)N2CCN(S(=O)(=O)c3ccc(C)cc3C)CC2)c1	8.2 µM [rising, partial curve]	–
COc1ccccc1NC(=S)NNC(=O)c1ccc(Cl)cc1Cl	29.1 µM [falling, single point]	–
COc1cccc(CNC(=O)CCS(=O)(=O)c2cccc3nsnc23)c1	4.11 µM [falling, partial curve, poor fit]	–
O=C(c1ccc(Cl)cc1)c1cc(-c2ccccn2)c(N2CCOCC2)s1	14.1 µM [falling, single point]	–
O=C(O)c1ccc(/C=N/Nc2ncc(C(F)(F)F)cc2Cl)cc1	2.24 µM [falling, partial curve, poor fit]	–
O=C(NCc1ccccn1)c1ccc(Cl)c(S(=O)(=O)NCc2ccccc2)c1	0.0164 µM [rising, full curve, poor fit]	–
O=C(CSc1ccccc1)N1CCN(c2ccccc2)CC1	2.91 µM [rising, single point]	–
